Assay results published in PMC13157976.
Results are given in words; binding and its absence hold for the method and conditions named. Binding seen in cells or lysates may run through a third protein. Here binding means that the protein was enriched with, or labelled near, the bait; the list need not be complete. For some assays here: Sequences can lack the tags named with a protein. Blank lines part the entries; values can stand above or below the molecule they belong to.

Protein sequences, listed by entry. Tags and fused reporters are not part of them. Lines headed by an entry give the natural chain unless they say otherwise; changes in a name come on top.
UniProt Q9LME6: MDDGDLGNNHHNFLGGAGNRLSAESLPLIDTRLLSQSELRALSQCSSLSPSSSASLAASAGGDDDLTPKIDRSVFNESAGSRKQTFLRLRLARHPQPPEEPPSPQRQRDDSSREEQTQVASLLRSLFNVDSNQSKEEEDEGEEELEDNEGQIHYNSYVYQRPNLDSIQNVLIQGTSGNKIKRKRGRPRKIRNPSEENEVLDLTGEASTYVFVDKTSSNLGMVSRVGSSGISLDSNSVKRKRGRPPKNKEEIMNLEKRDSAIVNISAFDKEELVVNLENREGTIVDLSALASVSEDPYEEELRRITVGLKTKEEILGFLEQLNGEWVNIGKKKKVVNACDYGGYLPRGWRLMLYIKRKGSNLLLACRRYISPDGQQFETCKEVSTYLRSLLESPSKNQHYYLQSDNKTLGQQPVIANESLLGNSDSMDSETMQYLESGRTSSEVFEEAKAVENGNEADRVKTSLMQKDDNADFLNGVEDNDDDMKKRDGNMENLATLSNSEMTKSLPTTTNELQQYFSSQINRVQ

How the values were obtained:
[1] = biological target: T1, epitope-tagged LDL2 (pLDL2::LDL2-FLAG transgenic line) (A. thaliana) (UniProt Q9LID0); experiment: affinity purification with mass spectrometry; extract of about 2 g seedlings of FLAG- or GFP-tagged lines, benzonase-treated; anti-FLAG or anti-GFP antibody on Dynabeads protein G, 2 h at 4°C; 25 mM HEPES-KOH pH 7.5, 100 mM NaCl; nontransgenic plants as negative control
T1 sequence: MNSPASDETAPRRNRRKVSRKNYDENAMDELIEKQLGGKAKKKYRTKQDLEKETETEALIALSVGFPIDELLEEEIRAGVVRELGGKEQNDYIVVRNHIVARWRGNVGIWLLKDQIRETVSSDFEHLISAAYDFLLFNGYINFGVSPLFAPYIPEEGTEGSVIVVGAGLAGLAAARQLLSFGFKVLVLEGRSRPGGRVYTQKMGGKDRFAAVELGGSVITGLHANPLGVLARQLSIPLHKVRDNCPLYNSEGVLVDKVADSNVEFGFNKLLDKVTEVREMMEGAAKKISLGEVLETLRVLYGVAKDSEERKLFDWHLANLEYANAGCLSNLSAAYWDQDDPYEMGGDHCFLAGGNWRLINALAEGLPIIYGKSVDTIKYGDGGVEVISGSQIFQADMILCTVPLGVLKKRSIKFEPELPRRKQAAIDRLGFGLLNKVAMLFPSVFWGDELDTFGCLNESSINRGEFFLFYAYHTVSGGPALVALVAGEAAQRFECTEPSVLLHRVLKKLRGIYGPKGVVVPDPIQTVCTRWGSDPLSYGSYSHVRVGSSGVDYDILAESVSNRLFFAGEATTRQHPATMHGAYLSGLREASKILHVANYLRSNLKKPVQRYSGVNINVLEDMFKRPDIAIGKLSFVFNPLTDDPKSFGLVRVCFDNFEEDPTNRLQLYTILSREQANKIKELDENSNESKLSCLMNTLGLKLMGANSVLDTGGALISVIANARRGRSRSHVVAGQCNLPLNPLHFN

[2] = biological target: epitope-tagged MBD8 (transgenic lines) (A. thaliana) (UniProt Q9LME6); experiment: as above

binding [1]: binds
Molecule: methyl-CpG-binding domain protein 8 (MBD8), endogenous (from UniProt Q9LME6)

binding [2]: binds
B1: LDL2, endogenous (enzyme, UniProt Q9LID0 1-746)
chain: T1 sequence
